{"source": "PubChem BioAssay AID1224830 (NIAID, 2016)", "purpose": "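Genes whose knock-down alters the TNF-alpha reporter response to LPS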 (primary screen)", "system": "human THP-1 monocytic leukaemia cells, TNF dual-luciferase reporter clone, PMA-differentiated to macrophage-like cells", "knock-down reagent": "siRNA pool against human genes, 50 nM", "duration": "LPS for 4 h, given about 3 days after siRNA transfection", "treatment": "bacterial LPS (TLR4 ligand), 10 ng/ml", "detection": "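TNF firefly reporter luminescence divided by renilla, normalised to the plate median, then turned into a robust z-score for each replicate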", "direction": "TNF reporter robust z-score: higher = stronger TNF reporter response to LPS", "active means": "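a well is active when its z-score exceeds 2.8 or falls below -1.5; control wells carry no call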", "note": "The deposit covers about 18,000 reagents; below is a part drawn at random. In the full data, about 2,900 (16%) are marked active. 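Calls are made per well; low scores hint the gene aids the LPS response, high scores that it dampens it.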 Repeated entries: four replicate wells of each siRNA pool."}
{"gene": "TMEM52 (transmembrane protein 52)", "TNF reporter robust z-score": -0.11, "Outcome": "inactive"}
{"gene": "TMEM52 (transmembrane protein 52)", "TNF reporter robust z-score": 1.61, "Outcome": "inactive"}
{"gene": "TMEM52 (transmembrane protein 52)", "TNF reporter robust z-score": -1.42, "Outcome": "inactive"}
{"gene": "TMEM52 (transmembrane protein 52)", "TNF reporter robust z-score": -0.66, "Outcome": "inactive"}
{"gene": "BCOR (BCL6 corepressor)", "TNF reporter robust z-score": 0.18, "Outcome": "inactive"}
{"gene": "BCOR (BCL6 corepressor)", "TNF reporter robust z-score": -0.25, "Outcome": "inactive"}
{"gene": "BCOR (BCL6 corepressor)", "TNF reporter robust z-score": -0.36, "Outcome": "inactive"}
{"gene": "BCOR (BCL6 corepressor)", "TNF reporter robust z-score": -0.76, "Outcome": "inactive"}
{"gene": "ADCK1 (aarF domain containing kinase 1)", "TNF reporter robust z-score": 0.14, "Outcome": "inactive"}
{"gene": "ADCK1 (aarF domain containing kinase 1)", "TNF reporter robust z-score": 0.29, "Outcome": "inactive"}
{"gene": "ADCK1 (aarF domain containing kinase 1)", "TNF reporter robust z-score": 0.62, "Outcome": "inactive"}
{"gene": "ADCK1 (aarF domain containing kinase 1)", "TNF reporter robust z-score": 1.04, "Outcome": "inactive"}
{"gene": "CDA (cytidine deaminase)", "TNF reporter robust z-score": -0.44, "Outcome": "inactive"}
{"gene": "CDA (cytidine deaminase)", "TNF reporter robust z-score": -0.62, "Outcome": "inactive"}
{"gene": "CDA (cytidine deaminase)", "TNF reporter robust z-score": 0.11, "Outcome": "inactive"}
{"gene": "CDA (cytidine deaminase)", "TNF reporter robust z-score": -0.84, "Outcome": "inactive"}
{"gene": "PDE9A (phosphodiesterase 9A)", "TNF reporter robust z-score": -0.58, "Outcome": "inactive"}
{"gene": "PDE9A (phosphodiesterase 9A)", "TNF reporter robust z-score": -0.75, "Outcome": "inactive"}
{"gene": "PDE9A (phosphodiesterase 9A)", "TNF reporter robust z-score": 1.23, "Outcome": "inactive"}
{"gene": "SFR1 (SWI5 dependent homologous recombination repair protein 1)", "TNF reporter robust z-score": -1.4, "Outcome": "inactive"}
{"gene": "SFR1 (SWI5 dependent homologous recombination repair protein 1)", "TNF reporter robust z-score": -0.9, "Outcome": "inactive"}
{"gene": "SFR1 (SWI5 dependent homologous recombination repair protein 1)", "TNF reporter robust z-score": -0.21, "Outcome": "inactive"}
{"gene": "SFR1 (SWI5 dependent homologous recombination repair protein 1)", "TNF reporter robust z-score": -0.08, "Outcome": "inactive"}
{"gene": "DOK6 (docking protein 6)", "TNF reporter robust z-score": 0.89, "Outcome": "inactive"}
{"gene": "DOK6 (docking protein 6)", "TNF reporter robust z-score": -0.17, "Outcome": "inactive"}
{"gene": "DOK6 (docking protein 6)", "TNF reporter robust z-score": 0.68, "Outcome": "inactive"}
{"gene": "DOK6 (docking protein 6)", "TNF reporter robust z-score": -0.28, "Outcome": "inactive"}
{"gene": "GBF1", "TNF reporter robust z-score": -0.54, "Outcome": "inactive"}
{"gene": "GBF1", "TNF reporter robust z-score": -1.42, "Outcome": "inactive"}
{"gene": "GBF1", "TNF reporter robust z-score": -0.87, "Outcome": "inactive"}
{"gene": "GBF1", "TNF reporter robust z-score": -0.58, "Outcome": "inactive"}
{"gene": "MRPL1 (mitochondrial ribosomal protein L1)", "TNF reporter robust z-score": 1.09, "Outcome": "inactive"}
{"gene": "MRPL1 (mitochondrial ribosomal protein L1)", "TNF reporter robust z-score": 0.04, "Outcome": "inactive"}
{"gene": "MRPL1 (mitochondrial ribosomal protein L1)", "TNF reporter robust z-score": -0.7, "Outcome": "inactive"}
{"gene": "MRPL1 (mitochondrial ribosomal protein L1)", "TNF reporter robust z-score": 1, "Outcome": "inactive"}
{"gene": "CD58 (CD58 molecule)", "TNF reporter robust z-score": 1.85, "Outcome": "inactive"}
{"gene": "CD58 (CD58 molecule)", "TNF reporter robust z-score": 0.4, "Outcome": "inactive"}
{"gene": "CD58 (CD58 molecule)", "TNF reporter robust z-score": 1.33, "Outcome": "inactive"}
{"gene": "CD58 (CD58 molecule)", "TNF reporter robust z-score": 1.23, "Outcome": "inactive"}
{"gene": "OR5AS1 (olfactory receptor family 5 subfamily AS member 1)", "TNF reporter robust z-score": -0.58, "Outcome": "inactive"}
{"gene": "OR5AS1 (olfactory receptor family 5 subfamily AS member 1)", "TNF reporter robust z-score": -0.53, "Outcome": "inactive"}
{"gene": "OR5AS1 (olfactory receptor family 5 subfamily AS member 1)", "TNF reporter robust z-score": -0.37, "Outcome": "inactive"}
{"gene": "OR5AS1 (olfactory receptor family 5 subfamily AS member 1)", "TNF reporter robust z-score": 0.05, "Outcome": "inactive"}
{"gene": "PARP11 (poly(ADP-ribose) polymerase family member 11)", "TNF reporter robust z-score": 1.05, "Outcome": "inactive"}
{"gene": "PARP11 (poly(ADP-ribose) polymerase family member 11)", "TNF reporter robust z-score": 1.54, "Outcome": "inactive"}
{"gene": "PARP11 (poly(ADP-ribose) polymerase family member 11)", "TNF reporter robust z-score": 0.74, "Outcome": "inactive"}
{"gene": "PARP11 (poly(ADP-ribose) polymerase family member 11)", "TNF reporter robust z-score": -0.06, "Outcome": "inactive"}

8 entries from above, arranged by “TNF reporter robust z-score”, low to high:
{"gene": "BCOR (BCL6 corepressor)", "TNF reporter robust z-score": -0.76, "Outcome": "inactive"}
{"gene": "CDA (cytidine deaminase)", "TNF reporter robust z-score": -0.44, "Outcome": "inactive"}
{"gene": "BCOR (BCL6 corepressor)", "TNF reporter robust z-score": -0.36, "Outcome": "inactive"}
{"gene": "BCOR (BCL6 corepressor)", "TNF reporter robust z-score": -0.25, "Outcome": "inactive"}
{"gene": "ADCK1 (aarF domain containing kinase 1)", "TNF reporter robust z-score": 0.14, "Outcome": "inactive"}
{"gene": "ADCK1 (aarF domain containing kinase 1)", "TNF reporter robust z-score": 0.29, "Outcome": "inactive"}
{"gene": "ADCK1 (aarF domain containing kinase 1)", "TNF reporter robust z-score": 0.62, "Outcome": "inactive"}
{"gene": "ADCK1 (aarF domain containing kinase 1)", "TNF reporter robust z-score": 1.04, "Outcome": "inactive"}
